Measured values: PubChem BioAssay AID1347076 (National Center for Advancing Translational Sciences (NCATS), 2019)
Among all 400,000 compounds or so, about 13,000 (3.2%) were called active. Inconclusive means that the source gave no clear call. Such entries were picked first, then a sample of the others. The call rests on the fitted dose curve; in most records, active means well fitted cell-killing curve with a large enough effect; inconclusive means small, poorly fitted or top-dose-only effect, or effect the other way; inactive means flat fitted curve, though single readings scatter. Where the call is inconclusive, the potency comes from a doubtful curve fit.

Test: qHTS assay for MDR1-selective chemotherapeutics: Primary screen using the drug-selected MDR subline cells KB-V1; further: nearly all actives have a fitted effect of over 60% in size
Details: KB-V1 MDR cells viability, CellTiter-Glo, 72 h; activity change, negative = cytotoxicity: at 46.1 µM (top of the series)
Procedure, shortened: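 Cells of the MDR subline KB-V1 are plated, dosed with compound at multiple concentrations, and incubated 72 h at 37 degrees C; CellTiter-Glo is then added and luminescence read after 10 min.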
On the % scale 0 is the no-effect control and ±100 the full control effect; potency means the concentration at half of the fitted maximal effect.

SMILES	activity change, negative = cytotoxicity	Potency
Cc1cccc(S(=O)(=O)NC(=O)C2(C)CCN2C(=O)CC2CCCCC2)c1 (stereo unspecified)	inactive: 3.8%	
Cc1cc(NC(=O)CSc2nc3c([nH]c4ccccc43)c(=O)n2-c2cccc(Cl)c2)no1	inactive: 7.96%	
CC1CN(c2nn3c(=O)c4ccccc4nc3c3ccccc23)CC(C)O1 (stereo unspecified)		active: 20.6 µM
Cn1c(=O)c2c(nc(N/N=C/c3ccncc3)n2Cc2ccccc2)n(C)c1=O	inactive: 2.67%	
C/C(=N\NC(N)=O)c1ccc(Cl)cc1		active: 11.6 µM
CCOC(=O)C1CCCN(C(=O)C2CCN(c3nnc(C)c4c(C)n(-c5ccccc5)nc34)CC2)C1 (stereo unspecified)	inactive: 4.44%	
COC(=O)c1ccc(CNC(=O)c2sccc2-c2ccccc2)cc1		inconclusive: 23.1 µM [cytotoxic, single point]
CN(c1ccccc1)S(=O)(=O)c1cccc(NC(=O)c2ccc3ncsc3c2)c1		inconclusive: 32.6 µM [cytotoxic, single point]
CCOc1ccc(CNS(=O)(=O)c2cccs2)cc1OCC	inactive: -14.8%	
COc1cc(C)cc2oc(=O)c(CC(=O)N3CCN(C(=O)C4COc5ccccc5O4)CC3)c(C)c12 (stereo unspecified)	inactive: -15.6%	
Cc1ccnc(NC(=O)c2ccccc2NC(=O)c2ccccc2)c1	inactive: -28.9%	
CCOc1ccc(NC(=O)N(CCC(C)C)C2CCN(C(C)=O)CC2)cc1		active: 18.4 µM
CCOc1ccccc1NC(=O)C(Cc1ccccc1)NS(=O)(=O)c1ccc(Br)s1 (stereo unspecified)		inconclusive: 20.6 µM [cytotoxic, single point]
O=C(COc1ccccc1C(=O)NCc1ccncc1)Nc1ccc(Br)cc1		inconclusive: 18.4 µM [cytotoxic, partial curve]
CCOc1ccc(N(CC(=O)N2CCN(c3ccccc3OC)CC2)S(=O)(=O)c2ccc(F)cc2)cc1		inconclusive: 5.17 µM [cytotoxic, partial curve]
COc1cc2c(c(OC)c1OC)-c1ccc(OC)c(=O)cc1[C@@H](N(C)CC#CCO)CC2		inconclusive: 4.11 µM [cytotoxic, partial curve, poor fit]
COc1ccc(S(=O)(=O)N2CCCC(C(=O)O)C2)cc1Cl (stereo unspecified)	inactive: 5.21%	
O=C(CN(Cc1ccccc1)C1=NCCS1)c1ccccc1		active: 18.4 µM
CCOc1ccc(OCCC(=O)OCC(=O)N2CCN(S(=O)(=O)c3ccc(C)cc3)CC2)cc1	inactive: 0%	
COc1cc2c(cc1OC)CN(C(=O)c1ccc([N+](=O)[O-])o1)CC2		inconclusive: 29.1 µM [cytotoxic, single point]
Cc1ccc(S(=O)(=O)N2CCN(C(=O)CSc3cc(C)ccc3C)CC2)c(C)c1		inconclusive: 11.6 µM [cytotoxic, partial curve, poor fit]

Sorted by molar mass (ascending): three of the compounds above.
SMILES	activity change, negative = cytotoxicity	Potency
COc1cc2c(cc1OC)CN(C(=O)c1ccc([N+](=O)[O-])o1)CC2		inconclusive: 29.1 µM [cytotoxic, single point]
COC(=O)c1ccc(CNC(=O)c2sccc2-c2ccccc2)cc1		inconclusive: 23.1 µM [cytotoxic, single point]
COc1cc2c(c(OC)c1OC)-c1ccc(OC)c(=O)cc1[C@@H](N(C)CC#CCO)CC2		inconclusive: 4.11 µM [cytotoxic, partial curve, poor fit]
